Assay results as given in PubChem BioAssay AID2685 (National Center for Advancing Translational Sciences (NCATS), 2010).
Some of the results follow. Further columns of the screen follow, without active or inactive calls. Compounds called inactive in the main read-out are mostly missing here. Potencies come from curve fits of mixed quality, noted in brackets.

Assay: qHTS Assay for Lipid Storage Modulators in Drosophila S3 Cells;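 as to cell number change: cells counted by Cell Tracker Red CMTPX staining in the red channel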
Details: BODIPY lipid droplet fluorescence, 18-24 h; for cell number change: measured here: cell count max response, cells fed with added oleic acid
Outline: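 Laser-scanning cytometry quantifies lipid droplet accumulation (500–530 nm total intensity; droplet/cell object ratio) in oleic acid-fed (400 uM added) Drosophila S3 cells treated with a concentration series. 20 uM Triacsin C defined 100% inhibition.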

[1] = measured here: cell number channel AC50, cells fed with added oleic acid
[2] = measured here: lipid fluorescence (Fed channel) AC50, cells fed with added oleic acid

Row | SMILES | cell number change | AC50 [1] | AC50 [2]
1 | S=c1nc[nH]c2c1ncn2C1CCCO1 (stereo not given) | 33.5% | 9.2 µM [rising, partial curve] | 10.3 µM [rising, partial curve, poor fit]
2 | N#C/C(=C\c1ccc(OCc2ccc(Cl)cc2)cc1)C(=O)Nc1cccc(C(=O)O)c1 | 14.3% |  | 5.17 µM [rising, full curve]
3 | CCOc1ccc2cc(S(=O)(=O)N3CCOCC3)ccc2c1 | 29.7% | 2.31 µM [rising, single point] | 4.61 µM [rising, single point]
4 | O=C(COC(=O)CCc1ccc(S(=O)(=O)N2CCOCC2)cc1)NC1CCCCCC1 | -7.05% |  | 
5 | CCCCOC(=O)c1ccc(N)cc1 | 7.7% |  | 5.17 µM [rising, single point]
6 | O=C(Oc1ccccc1C(=O)N1CCOCC1)c1ccc(Br)cc1 | -11.7% | 0.651 µM [falling, full curve, poor fit] | 
7 | O=C(NCc1c(Cl)cccc1Oc1ccccc1)c1ccccc1 | -49.1% | 32.6 µM [falling, single point] | 18.4 µM [falling, partial curve]
8 | CCOc1ccc(NC(=O)CN(C)C(=O)CCCc2c[nH]c3ccccc23)cc1OCC |  | 1.46 µM [rising, partial curve] | 
9 | CCOC(=O)/C(C#N)=C/c1cc(C)n(-c2ccc(C)cc2)c1C | -12.2% |  | 0.164 µM [falling, full curve, poor fit]
10 | CC(NC(=O)C1CCCN(S(=O)(=O)c2cccs2)C1)c1ccccc1 (stereo not given) |  |  | 1.03 µM [rising, partial curve]
11 | Cc1cnc(C(=O)NCCc2ccc(C(F)(F)F)cc2)cn1 | 16.2% |  | 4.11 µM [rising, full curve]
12 | S=C(Nc1ccccc1Cl)N1CCC(c2ccccc2)C1 (stereo not given) | -17.5% |  | 0.517 µM [falling, full curve, poor fit]
13 | O=C(COc1ccc(F)cc1)Nc1nc(-c2ccccn2)cs1 | -50% | 25.9 µM [falling, single point] | 
14 | O=C(Cn1c(=O)oc2cccnc21)Nc1ccccc1Oc1ccc(Cl)cc1Cl | 15.2% |  | 23.1 µM [rising, partial curve, poor fit]
15 | Cc1cccc(N2C(=O)CN(Cc3cccs3)C2=S)c1 | 14.4% |  | 2.06 µM [rising, single point]
16 | Oc1c(Br)cc(/C=N/n2c(-c3ccccc3)n[nH]c2=S)c(O)c1Br | -12.4% |  | 32.6 µM [rising, single point]
17 | COc1cccc(C(=O)C2CCCN(Cc3cn(C)nc3-c3ccccc3)C2)c1 (stereo not given) | -56.6% | 16.4 µM [falling, partial curve] | 8.2 µM [falling, partial curve]
18 | COC(=O)c1cc(CNC(=O)Cc2ccsc2)ccc1OC | 9.13% |  | 
19 | COc1ccc(OCC(=O)N2CCc3ccccc3C2)cc1 | -1.46% |  | 29.1 µM [rising, partial curve, poor fit]
20 | CC(C)(C)c1ccccc1NC(=O)c1ccco1 | -7.71% |  | 0.103 µM [rising, partial curve]
21 | Cc1nn(C)cc1CN(C)C(=O)c1cc(-c2ccccc2)nc2ccc(Br)cc12 | 22.8% | 3.66 µM [rising, single point] | 10.3 µM [rising, single point]

Row | SMILES | cell number change | AC50 [1] | AC50 [2]
22 | COc1ccc(C(=O)N2CCN(C3CCN(Cc4ccccc4)CC3)CC2)cc1OC | -30.3% | 0.206 µM [falling, full curve, poor fit] | 11.6 µM [falling, partial curve, poor fit]
23 | CCOC(=O)c1csc(CCNC(=O)c2oc3c(Cl)cc(C)cc3c2C)n1 | 12.5% | 6.51 µM [rising, single point] | 
24 | O=C(OCCN1C(=O)c2ccccc2C1=O)Oc1ccccc1 | 21.2% |  | 6.51 µM [rising, single point]
25 | CC1CC(C)CN(C(=O)c2ccc(NC(=O)c3ccc(=O)[nH]c3)cc2)C1 (stereo not given) | -17.5% |  | 0.00461 µM [falling, full curve, poor fit]
26 | O=C(CCNC(=O)c1ccc([N+](=O)[O-])cc1)NC1CCCc2ccccc21 (stereo not given) | -13% |  | 
27 | O=C(CN1CCOCC1)N/N=C/c1c(O)ccc2ccccc12 | 3.23% |  | 18.4 µM [falling, single point]
28 | CC(C)C[C@H](NC(=O)NCc1ccc(F)cc1)C(=O)O | 0.3% |  | 0.651 µM [falling, full curve, poor fit]
29 | O=C(Cc1ccc(F)cc1)Nc1ccc(S(=O)(=O)N2CCCC2)cc1 | -18.1% |  | 
30 | CCC(=O)NC(=S)Nc1cccc(NC(=O)CC)c1 | -22.9% |  | 1.03 µM [falling, full curve]
31 | CC(C)C[C@@H](NC(=O)C1CCC(CNC(=O)[C@H](Cc2ccccc2)NC(=O)OC(C)(C)C)CC1)C(=O)O (stereo not given in full) | 13.9% |  | 
32 | Cc1c(C(=O)NC(C)C2CC3CCC2C3)cccc1[N+](=O)[O-] (stereo not given) | -0.952% |  | 29.1 µM [falling, single point]
33 | O=C(Nc1ccc(Cl)cc1F)C1CC1 | -0.471% |  | 29.1 µM [rising, single point]
34 | CN(C)CCNC(=O)Cn1ccc2cc(S(=O)(=O)N3CCCCC3)ccc21 | 14.7% |  | 
35 | CN(C)CCCN1C(=O)c2oc3ccc(Cl)cc3c(=O)c2C1c1cccnc1 (stereo not given) | 13.1% |  | 3.26 µM [rising, full curve]
36 | Cc1ccc2nc(N(CCN(C)C)C(=O)c3ccc4c(c3)OCCO4)sc2c1 |  |  | 23.1 µM [rising, partial curve, poor fit]
37 | Cc1nn(C)cc1NC(=O)Cn1nc(C(F)(F)F)cc1C1CC1 | -1.02% |  | 0.58 µM [falling, partial curve, poor fit]
38 | CCOC(=O)CSc1nc(C)c(CC)c(C)c1C(N)=O | 24.6% |  | 0.0651 µM [falling, full curve, poor fit]
39 | CCCOc1ccc(/C=C/C(=O)NCc2ccccc2)cc1 | 2.94% |  | 8.2 µM [rising, partial curve]
40 | CCOC(=O)c1cccc(NC(=O)C2CCCN(S(=O)(=O)c3c(C)n[nH]c3C)C2)c1 (stereo not given) | -20.6% | 0.164 µM [falling, full curve, poor fit] | 
41 | CNC(=O)C(=O)Nc1c(C)cc(C)cc1C |  | 6.51 µM [rising, single point] | 
42 | Cc1cc(C)c2c(N)c(C(=O)Nc3nccs3)sc2n1 | -7.94% |  | 

Row | SMILES | cell number change | AC50 [1] | AC50 [2]
43 | CCOc1ccc(NC(=O)CCSc2nc3c(c(CC)c2C#N)C(=O)CC(C)(C)C3)cc1 | 42.4% | 1.46 µM [rising, full curve] | 1.3 µM [rising, full curve]
44 | CN1CCN(S(=O)(=O)c2ccc(NC(=O)c3ccc(F)cc3Cl)cc2)CC1 | 1.38% |  | 2.91 µM [rising, single point]
45 | CN(C)S(=O)(=O)c1cc(NC2CC(=O)N(c3ccc(F)cc3)C2=O)ccc1Cl (stereo not given) | 21.4% |  | 0.00517 µM [rising, full curve, poor fit]
46 | Cc1csc(NC(=O)c2cn3ccccc3n2)n1 | 38.5% | 13 µM [rising, single point] | 
47 | Cc1cc(OCC(=O)NC2CC2)c2c(C)cc(=O)oc2c1 |  |  | 2.06 µM [rising, partial curve, poor fit]
48 | O=C(Oc1ccccc1C(=O)N1CCOCC1)c1ccccc1 |  | 4.61 µM [falling, single point] | 
49 | CC(C)Cn1c(N)c(C(=O)COC(=O)c2cc(C(F)(F)F)nc3ccccc23)c(=O)n(C)c1=O | -70.4% | 16.4 µM [falling, single point] | 16.4 µM [falling, single point]
50 | O=C(CS(=O)(=O)Cc1ccccc1)NCc1ccc2c(c1)OCO2 |  | 0.164 µM [rising, full curve] | 5.17 µM [rising, single point]
51 | Cc1ccccc1NC(=O)Cc1nc(COC(=O)Cc2c(F)cccc2Cl)cs1 | -4.51% |  | 
52 | CC(C)(Oc1ccc(Cl)cc1)C(=O)OCn1nnc2ccccc2c1=O |  | 0.146 µM [rising, full curve, poor fit] | 
53 | O=C(Nc1ccc(C(=O)O)c(O)c1)c1ccccc1 | 7.38% |  | 6.51 µM [falling, single point]
54 | Cc1ccc(-c2nc(SC(C)C(=O)N3CCCC3)n[nH]2)cc1 (stereo not given) | 35.5% |  | 
55 | CSc1nc(-c2ccccc2)cn1-c1ccc(NC(C)=O)cc1 | 29.1% |  | 0.259 µM [rising, full curve]
56 | CCn1cc(/C=C(\NC(=O)c2ccccc2)C(=O)NCCCN2CCOCC2)c2ccccc21 |  |  | 18.4 µM [rising, single point]
57 | CN(C)c1ccc(/C=[N+](\[O-])C2SC(=S)N(C)C2(C)C)cc1 (stereo not given) | 42.3% | 0.00517 µM [rising, full curve, poor fit] | 
58 | COc1ccc(-c2nnc(SCC(=O)NCCC(C)C)nc2-c2ccc(OC)c(OC)c2)cc1OC | 70.4% |  | 5.8 µM [rising, full curve]
59 | CC(C)C(NC(=O)c1ccco1)C(=O)NC1CCCCCC1 (stereo not given) | 11.7% |  | 11.6 µM [falling, single point]
60 | O=C(Nc1c(Cl)cccc1Cl)c1cc(-c2ccco2)on1 | -10.3% | 1.3 µM [rising, partial curve] | 29.1 µM [rising, single point]
61 | COc1ccc(CNC(=S)Nc2cc(C)cc(C)c2)cc1 | -3.18% |  | 
62 | CC(=O)C1=C(O)CCC1=NCCc1ccccc1 | 25.9% |  | 6.51 µM [falling, single point]

In the list so far, six have an NH in an aromatic ring.
Row | SMILES | cell number change | AC50 [1] | AC50 [2]
1 | S=c1nc[nH]c2c1ncn2C1CCCO1 (stereo not given) | 33.5% | 9.2 µM [rising, partial curve] | 10.3 µM [rising, partial curve, poor fit]
8 | CCOc1ccc(NC(=O)CN(C)C(=O)CCCc2c[nH]c3ccccc23)cc1OCC |  | 1.46 µM [rising, partial curve] | 
16 | Oc1c(Br)cc(/C=N/n2c(-c3ccccc3)n[nH]c2=S)c(O)c1Br | -12.4% |  | 32.6 µM [rising, single point]
25 | CC1CC(C)CN(C(=O)c2ccc(NC(=O)c3ccc(=O)[nH]c3)cc2)C1 (stereo not given) | -17.5% |  | 0.00461 µM [falling, full curve, poor fit]
40 | CCOC(=O)c1cccc(NC(=O)C2CCCN(S(=O)(=O)c3c(C)n[nH]c3C)C2)c1 (stereo not given) | -20.6% | 0.164 µM [falling, full curve, poor fit] | 
54 | Cc1ccc(-c2nc(SC(C)C(=O)N3CCCC3)n[nH]2)cc1 (stereo not given) | 35.5% |  | 

Sorted by number of heavy atoms (high to low): 3 of the compounds above.
Row | SMILES | cell number change | AC50 [1] | AC50 [2]
52 | CC(C)(Oc1ccc(Cl)cc1)C(=O)OCn1nnc2ccccc2c1=O |  | 0.146 µM [rising, full curve, poor fit] | 
48 | O=C(Oc1ccccc1C(=O)N1CCOCC1)c1ccccc1 |  | 4.61 µM [falling, single point] | 
46 | Cc1csc(NC(=O)c2cn3ccccc3n2)n1 | 38.5% | 13 µM [rising, single point] | 
